Patent US20150079000A1, “Labelled Quinoxaline Derivatives as Multimodal Radiopharmaceuticals and Their Precursors” (INSTITUT NATIONAL DE LA SANTET DE LA RECHERCHE MEDICALE, priority 2012, published 2015)
Some entries share one result that the patent states for a list of compounds. At least one structure is not confirmed: it was looked up by name or label, or the drawing left a doubt.

Test: radiochemical stability of the radiotracer after preparation
Assay type: physicochemical
Conditions: for at least 6 h

Compound	in vitro stability in saline (RCP) [%]
CCN(CCNC(=O)c1cnc2cc(I)ccc2n1)CCOCCOCCOCCOCCOCCOCCOCC[18F] [[^18F](5)]	> 99
CCN(CCNC(=O)c1cnc2cc(I)ccc2n1)CCOCCOCCOCC[18F] [[^18F](1)]	> 99
